# Experimental data published in the supplement of paper PMC12067093, “Discovery and optimisation of a covalent ligand for TRIM25 and its application to targeted protein ubiquitination” (Chemical Science, 2025).
# Protein sequences, listed by entry. Tags and fused reporters are not part of them. Lines headed by an entry give the natural chain unless they say otherwise; changes in a name come on top.
# UniProt Q02447: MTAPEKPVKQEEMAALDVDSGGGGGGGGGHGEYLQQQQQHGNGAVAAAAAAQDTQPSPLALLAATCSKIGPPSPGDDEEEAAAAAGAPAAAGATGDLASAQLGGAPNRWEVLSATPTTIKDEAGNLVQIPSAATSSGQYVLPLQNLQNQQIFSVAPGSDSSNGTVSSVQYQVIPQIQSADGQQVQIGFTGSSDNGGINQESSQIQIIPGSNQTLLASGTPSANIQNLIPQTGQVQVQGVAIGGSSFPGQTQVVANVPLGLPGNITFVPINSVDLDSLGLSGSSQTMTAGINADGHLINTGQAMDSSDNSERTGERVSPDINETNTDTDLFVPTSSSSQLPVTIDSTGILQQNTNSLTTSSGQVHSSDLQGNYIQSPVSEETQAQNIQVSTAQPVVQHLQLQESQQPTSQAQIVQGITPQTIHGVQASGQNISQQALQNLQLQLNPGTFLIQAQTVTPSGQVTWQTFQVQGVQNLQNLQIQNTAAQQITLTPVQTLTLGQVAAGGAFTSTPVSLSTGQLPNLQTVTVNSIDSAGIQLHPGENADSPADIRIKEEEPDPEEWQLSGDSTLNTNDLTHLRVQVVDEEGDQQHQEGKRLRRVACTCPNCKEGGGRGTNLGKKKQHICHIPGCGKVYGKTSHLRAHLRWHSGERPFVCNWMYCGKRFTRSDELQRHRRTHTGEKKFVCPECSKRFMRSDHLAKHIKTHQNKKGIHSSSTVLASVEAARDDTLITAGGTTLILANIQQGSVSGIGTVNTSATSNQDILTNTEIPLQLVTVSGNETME
# UniProt Q00796: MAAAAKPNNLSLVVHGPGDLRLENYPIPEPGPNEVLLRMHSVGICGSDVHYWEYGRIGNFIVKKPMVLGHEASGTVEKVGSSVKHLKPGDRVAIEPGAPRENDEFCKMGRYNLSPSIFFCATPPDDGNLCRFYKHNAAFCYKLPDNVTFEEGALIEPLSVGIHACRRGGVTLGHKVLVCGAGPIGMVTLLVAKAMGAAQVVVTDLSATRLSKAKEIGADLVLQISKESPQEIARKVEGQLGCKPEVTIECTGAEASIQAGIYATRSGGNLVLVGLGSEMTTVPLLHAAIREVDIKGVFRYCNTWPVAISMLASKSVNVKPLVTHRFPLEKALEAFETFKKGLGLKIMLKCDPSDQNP
# UniProt Q5T280: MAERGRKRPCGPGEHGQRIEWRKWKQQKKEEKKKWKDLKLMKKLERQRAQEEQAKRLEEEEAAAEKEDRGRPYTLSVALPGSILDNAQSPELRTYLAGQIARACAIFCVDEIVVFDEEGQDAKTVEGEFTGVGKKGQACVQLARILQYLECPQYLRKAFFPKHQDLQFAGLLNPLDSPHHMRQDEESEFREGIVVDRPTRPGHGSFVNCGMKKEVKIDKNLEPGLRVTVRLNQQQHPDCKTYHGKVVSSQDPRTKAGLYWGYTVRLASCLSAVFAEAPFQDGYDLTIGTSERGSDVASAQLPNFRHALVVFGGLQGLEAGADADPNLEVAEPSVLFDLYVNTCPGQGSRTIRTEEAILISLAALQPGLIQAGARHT
# UniProt Q01082, whole entry, looked up: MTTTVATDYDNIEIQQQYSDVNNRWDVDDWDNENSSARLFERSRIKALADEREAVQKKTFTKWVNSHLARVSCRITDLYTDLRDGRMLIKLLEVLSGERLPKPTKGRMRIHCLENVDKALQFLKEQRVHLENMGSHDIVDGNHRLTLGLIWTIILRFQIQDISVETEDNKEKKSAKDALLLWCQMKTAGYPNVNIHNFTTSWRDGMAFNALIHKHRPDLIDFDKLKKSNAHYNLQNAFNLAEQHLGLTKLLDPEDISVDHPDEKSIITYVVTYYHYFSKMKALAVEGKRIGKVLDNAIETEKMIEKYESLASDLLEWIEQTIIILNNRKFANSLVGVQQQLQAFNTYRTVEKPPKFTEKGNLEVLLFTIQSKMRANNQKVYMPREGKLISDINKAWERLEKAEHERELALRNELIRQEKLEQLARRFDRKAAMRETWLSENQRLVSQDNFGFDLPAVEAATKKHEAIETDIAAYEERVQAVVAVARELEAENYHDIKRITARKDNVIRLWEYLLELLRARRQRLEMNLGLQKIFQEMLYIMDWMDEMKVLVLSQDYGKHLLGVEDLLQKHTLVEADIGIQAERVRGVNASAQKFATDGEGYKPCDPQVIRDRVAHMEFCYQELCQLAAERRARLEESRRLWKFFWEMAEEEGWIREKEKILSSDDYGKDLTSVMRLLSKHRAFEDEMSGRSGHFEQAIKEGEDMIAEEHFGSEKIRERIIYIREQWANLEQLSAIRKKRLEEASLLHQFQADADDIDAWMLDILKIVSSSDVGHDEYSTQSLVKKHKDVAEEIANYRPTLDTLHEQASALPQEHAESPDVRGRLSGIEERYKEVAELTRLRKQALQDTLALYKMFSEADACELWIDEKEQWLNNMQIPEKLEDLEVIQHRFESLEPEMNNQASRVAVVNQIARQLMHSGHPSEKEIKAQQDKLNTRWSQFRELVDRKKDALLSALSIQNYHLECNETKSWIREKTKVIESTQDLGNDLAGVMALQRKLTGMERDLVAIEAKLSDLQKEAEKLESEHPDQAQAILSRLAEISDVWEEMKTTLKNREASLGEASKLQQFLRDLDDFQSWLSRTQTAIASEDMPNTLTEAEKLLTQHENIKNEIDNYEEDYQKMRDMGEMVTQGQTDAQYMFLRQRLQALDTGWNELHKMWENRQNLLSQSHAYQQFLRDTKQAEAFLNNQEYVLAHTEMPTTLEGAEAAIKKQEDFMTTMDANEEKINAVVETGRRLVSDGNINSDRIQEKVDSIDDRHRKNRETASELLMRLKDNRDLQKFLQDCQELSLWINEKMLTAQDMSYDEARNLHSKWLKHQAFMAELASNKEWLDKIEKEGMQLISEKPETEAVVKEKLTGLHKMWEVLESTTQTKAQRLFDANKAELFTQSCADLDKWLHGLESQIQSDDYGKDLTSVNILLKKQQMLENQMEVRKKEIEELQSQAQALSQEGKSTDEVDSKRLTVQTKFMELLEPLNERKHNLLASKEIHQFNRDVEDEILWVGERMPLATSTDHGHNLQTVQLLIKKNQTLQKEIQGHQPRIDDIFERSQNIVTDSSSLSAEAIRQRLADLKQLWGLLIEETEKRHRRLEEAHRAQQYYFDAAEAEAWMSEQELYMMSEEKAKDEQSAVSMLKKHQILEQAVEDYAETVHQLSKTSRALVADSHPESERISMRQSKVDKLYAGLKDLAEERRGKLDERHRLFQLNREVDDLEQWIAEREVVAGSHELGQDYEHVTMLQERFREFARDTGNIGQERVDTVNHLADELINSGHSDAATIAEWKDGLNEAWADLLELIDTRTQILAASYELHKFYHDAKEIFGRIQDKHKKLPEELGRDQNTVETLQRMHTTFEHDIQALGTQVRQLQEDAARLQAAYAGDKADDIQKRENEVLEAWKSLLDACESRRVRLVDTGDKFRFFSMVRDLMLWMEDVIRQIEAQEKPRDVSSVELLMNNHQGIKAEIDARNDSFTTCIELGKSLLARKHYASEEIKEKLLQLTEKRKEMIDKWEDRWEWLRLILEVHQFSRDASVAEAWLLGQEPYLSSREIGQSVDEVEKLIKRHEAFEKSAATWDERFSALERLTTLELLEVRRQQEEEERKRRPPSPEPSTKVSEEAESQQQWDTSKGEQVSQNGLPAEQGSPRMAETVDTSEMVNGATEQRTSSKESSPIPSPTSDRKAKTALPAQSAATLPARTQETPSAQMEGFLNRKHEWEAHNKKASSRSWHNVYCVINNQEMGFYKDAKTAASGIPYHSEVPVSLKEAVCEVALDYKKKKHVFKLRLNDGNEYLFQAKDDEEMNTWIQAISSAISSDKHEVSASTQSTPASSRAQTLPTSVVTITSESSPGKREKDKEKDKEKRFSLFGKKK
# UniProt Q8NB90: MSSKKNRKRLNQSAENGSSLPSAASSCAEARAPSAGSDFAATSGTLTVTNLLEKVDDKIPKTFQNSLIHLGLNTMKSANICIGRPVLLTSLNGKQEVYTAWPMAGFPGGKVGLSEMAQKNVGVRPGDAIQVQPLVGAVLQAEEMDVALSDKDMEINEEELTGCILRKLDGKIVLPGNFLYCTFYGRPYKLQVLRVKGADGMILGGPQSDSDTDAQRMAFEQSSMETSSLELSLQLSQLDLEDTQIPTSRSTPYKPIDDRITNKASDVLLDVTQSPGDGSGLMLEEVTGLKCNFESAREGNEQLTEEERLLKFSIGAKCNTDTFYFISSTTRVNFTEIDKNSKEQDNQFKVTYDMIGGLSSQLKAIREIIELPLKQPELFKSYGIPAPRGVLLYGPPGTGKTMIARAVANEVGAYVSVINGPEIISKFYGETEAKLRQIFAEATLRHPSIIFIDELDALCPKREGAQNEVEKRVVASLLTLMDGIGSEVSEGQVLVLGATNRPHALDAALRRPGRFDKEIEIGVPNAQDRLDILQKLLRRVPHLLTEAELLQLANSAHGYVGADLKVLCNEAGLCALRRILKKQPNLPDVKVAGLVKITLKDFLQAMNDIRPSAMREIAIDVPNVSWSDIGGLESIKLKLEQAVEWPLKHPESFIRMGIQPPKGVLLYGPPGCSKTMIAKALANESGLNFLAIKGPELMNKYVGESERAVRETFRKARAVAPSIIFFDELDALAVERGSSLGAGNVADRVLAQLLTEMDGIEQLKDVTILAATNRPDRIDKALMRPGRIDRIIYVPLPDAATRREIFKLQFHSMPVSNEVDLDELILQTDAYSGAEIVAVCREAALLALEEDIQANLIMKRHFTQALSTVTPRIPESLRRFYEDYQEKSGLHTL
# UniProt Q9UHB9: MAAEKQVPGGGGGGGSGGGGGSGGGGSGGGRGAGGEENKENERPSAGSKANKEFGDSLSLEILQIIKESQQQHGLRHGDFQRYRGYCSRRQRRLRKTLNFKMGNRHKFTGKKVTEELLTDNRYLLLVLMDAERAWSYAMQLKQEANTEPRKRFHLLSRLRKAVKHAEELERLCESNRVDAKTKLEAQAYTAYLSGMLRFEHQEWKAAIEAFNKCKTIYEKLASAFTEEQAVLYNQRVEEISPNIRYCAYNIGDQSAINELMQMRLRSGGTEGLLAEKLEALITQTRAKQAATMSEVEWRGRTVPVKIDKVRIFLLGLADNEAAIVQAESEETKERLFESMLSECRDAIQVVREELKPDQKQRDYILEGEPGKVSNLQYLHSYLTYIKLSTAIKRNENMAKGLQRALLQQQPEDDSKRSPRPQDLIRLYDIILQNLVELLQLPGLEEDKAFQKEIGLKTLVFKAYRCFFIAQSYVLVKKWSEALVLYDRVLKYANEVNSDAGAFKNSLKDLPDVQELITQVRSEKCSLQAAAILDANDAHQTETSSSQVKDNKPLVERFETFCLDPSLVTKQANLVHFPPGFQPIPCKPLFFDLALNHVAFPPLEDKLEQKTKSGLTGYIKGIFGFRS
# UniProt Q9UNH7: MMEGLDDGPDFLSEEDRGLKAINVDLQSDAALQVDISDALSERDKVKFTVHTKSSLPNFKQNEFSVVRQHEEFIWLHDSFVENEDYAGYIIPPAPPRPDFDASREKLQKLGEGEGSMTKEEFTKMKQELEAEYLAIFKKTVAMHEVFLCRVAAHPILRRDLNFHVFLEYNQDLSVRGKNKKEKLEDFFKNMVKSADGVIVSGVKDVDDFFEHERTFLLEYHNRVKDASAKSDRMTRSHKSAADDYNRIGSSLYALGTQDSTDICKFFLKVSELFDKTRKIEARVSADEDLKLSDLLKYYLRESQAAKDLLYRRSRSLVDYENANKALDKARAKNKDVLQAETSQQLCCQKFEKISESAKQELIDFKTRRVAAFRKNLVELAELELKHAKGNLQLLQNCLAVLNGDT
# UniProt Q9UNH6: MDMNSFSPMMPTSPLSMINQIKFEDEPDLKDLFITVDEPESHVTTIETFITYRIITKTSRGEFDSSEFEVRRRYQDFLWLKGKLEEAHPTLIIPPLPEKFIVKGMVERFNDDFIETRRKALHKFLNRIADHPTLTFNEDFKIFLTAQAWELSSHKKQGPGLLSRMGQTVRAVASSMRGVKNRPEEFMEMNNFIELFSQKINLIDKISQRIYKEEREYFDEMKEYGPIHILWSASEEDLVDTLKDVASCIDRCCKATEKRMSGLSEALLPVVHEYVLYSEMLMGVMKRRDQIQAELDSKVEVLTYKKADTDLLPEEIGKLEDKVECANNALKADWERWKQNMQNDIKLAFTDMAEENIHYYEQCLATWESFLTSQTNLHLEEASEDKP
# UniProt P62306, whole entry, looked up: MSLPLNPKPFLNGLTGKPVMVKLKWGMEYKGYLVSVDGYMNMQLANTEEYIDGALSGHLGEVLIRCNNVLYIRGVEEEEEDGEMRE
# UniProt Q9HBM1: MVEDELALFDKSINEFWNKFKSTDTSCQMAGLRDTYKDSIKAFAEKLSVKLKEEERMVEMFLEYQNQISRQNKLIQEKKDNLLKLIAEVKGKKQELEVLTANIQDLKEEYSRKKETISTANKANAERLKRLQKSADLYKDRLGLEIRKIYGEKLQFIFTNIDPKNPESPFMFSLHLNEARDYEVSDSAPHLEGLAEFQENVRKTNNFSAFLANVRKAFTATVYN
# This is one part of the list.
# Compound: Cc1cc(ccc1-c1ccccc1)C(=O)N1CCCN(CC1)C(=O)CCl [compound 10]
# Assay: probe-labelled cysteine peptide fold change vs DMSO (competition) (log2 fold change); higher = less target engagement (more negative = stronger competition)
# Conditions: 10 µM; THP-1; incubation time: 4 h
# 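Further: competitive profiling in live THP-1 cells: cysteine peptides tagged with an iodoacetamide desthiobiotin (IA-DTB) probe, intensity after compound treatment relative to DMSO-treated cells.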
row,Target,probe-labelled cysteine peptide fold change
1,SP3_Q02447_683_KFVCPECSK (UniProt Q02447),0.188
2,SREBF2_Q12772_787_ESLYCAQR (UniProt Q12772),0.18
3,SNUPN_O95149_356_GSSHSPDHPGCLMEN (UniProt O95149),-0.229
4,SORD_Q00796_106_ENDEFCK (UniProt Q00796),-0.0657
5,SPOUT1_Q5T280_10_KRPCGPGEHGQR (UniProt Q5T280),-0.158
6,SPTBN1_Q01082_1900_SLLDACESRR (UniProt Q01082),0.0337
7,SPTAN1_Q13813_158_ECEDVMDWINDK (UniProt Q13813),0.156
8,SPATA5_Q8NB90_574_VLCNEAGLCALRR (UniProt Q8NB90),0.00199
9,SRP68_Q9UHB9_173_LCESNR (UniProt Q9UHB9),0.329
10,SNX6_Q9UNH7_149_TVAMHEVFLCR (UniProt Q9UNH7),-0.37
11,SNX7_Q9UNH6_325_VECANNALK (UniProt Q9UNH6),-0.12
12,SNX32_Q86XE0_237_CLADDYIPISAALSSLGTQEVNQLR (UniProt Q86XE0),-0.211
13,SPATA5_Q8NB90_459_HPSIIFIDELDALCPK (UniProt Q8NB90),-0.207
14,SPEN_Q96T58_1238_MDHVDFDICTK (UniProt Q96T58),-0.128
15,SNRPF_P62306_66_CNNVLYIR (UniProt P62306),-0.00262
16,SPTBN1_Q01082_861_MFSEADACELWIDEK (UniProt Q01082),-0.053
17,SPC25_Q9HBM1_27_STDTSCQMAGLR (UniProt Q9HBM1),-0.206

# Given tab-delimited: entries from further up
row	Target	probe-labelled cysteine peptide fold change
4	SORD_Q00796_106_ENDEFCK (UniProt Q00796)	-0.0657
5	SPOUT1_Q5T280_10_KRPCGPGEHGQR (UniProt Q5T280)	-0.158
